From paper PMC2219390 (The Journal of General Physiology, 1996)

System: rat brain voltage-dependent sodium channels (BTX-modified)
Type: biochemical

## CCN(CC)CC(=O)Nc1c(C)cccc1C [lidocaine]
30 mM lidocaine (0.2 M NaCl) or 0.4 mM QX-314 (0.5 M NaCl), Fig. 7
  block of the small subconductance channel state (~6 pS): did not block
0.5 vs 0.2 M NaCl, Table I part B
  reduction in the koff rate with change of NaCl concentration: 50%
Table I B, symmetrical 0.5 M NaCl, 150mV as printed, mean SEM, n = 3
  kon (binding rate): 2,124+-78 mM-1s-1
